PubChem BioAssay AID1159578, Peter MacCallum Cancer Centre – 2015
The deposit covers about 18,000 reagents; this is a random part of them. About 1,030 of them (5.7%) count as active. 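Inactive calls also include pools with fewer than 3300 nuclei, whose migration was not assessed.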 Raw values vary from plate to plate and are shown uncorrected. Not all columns of the deposit are shown.

Aim: 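Genome-wide hunt for genes controlling movement of lymphatic endothelial cells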 (primary screen)
System: human lymphatic endothelial cells
Knock-down reagent: siRNA pool against human genes, 40 nM
Timing: 48 h after transfection
Read-out: 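Cells stained with dye and imaged after a scratch; covered wound area and nuclei counted, duplicates averaged, migration set against mock wells and turned into a robust z-score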
Reading the numbers: migration robust z-score: higher = faster migration into the scratch; nuclei per well: higher = more cells in the well
Active means: 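Migration changed when robust z exceeds 2 or falls below -2 and mean nuclei number is at least 3300; otherwise not called changed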
Calls: active = migration changed; inactive = no migration change, or too few cells

{"target":"L3MBTL4 (L3MBTL histone methyl-lysine binding protein 4)","migration robust z-score":0.46,"nuclei per well, duplicate mean":6130,"outcome":"inactive"}
{"target":"LRRC31 (leucine rich repeat containing 31)","migration robust z-score":0.68,"nuclei per well, duplicate mean":5187,"outcome":"inactive"}
{"target":"DIS3 (DIS3 exosome endoribonuclease and 3'-5' exoribonuclease)","migration robust z-score":0.54,"nuclei per well, duplicate mean":4981,"outcome":"inactive"}
{"target":"TPI1 (triosephosphate isomerase 1)","migration robust z-score":0.1,"nuclei per well, duplicate mean":7870,"outcome":"inactive"}
{"target":"CDCA8 (cell division cycle associated 8)","migration robust z-score":-0.8,"nuclei per well, duplicate mean":3846,"outcome":"inactive"}
{"target":"TRIM51G (tripartite motif-containing 51G)","migration robust z-score":-3.06,"nuclei per well, duplicate mean":4336,"outcome":"active"}
{"target":"BEND5 (BEN domain containing 5)","migration robust z-score":0.6,"nuclei per well, duplicate mean":6120,"outcome":"inactive"}
{"target":"LRIF1 (ligand dependent nuclear receptor interacting factor 1)","migration robust z-score":-0.08,"nuclei per well, duplicate mean":7401,"outcome":"inactive"}
{"target":"CGB5 (chorionic gonadotropin subunit beta 5)","migration robust z-score":1.43,"nuclei per well, duplicate mean":5874,"outcome":"inactive"}
{"target":"SRRM3 (serine/arginine repetitive matrix 3)","migration robust z-score":-0.92,"nuclei per well, duplicate mean":5166,"outcome":"inactive"}
{"target":"TMED7 (transmembrane p24 trafficking protein 7)","migration robust z-score":-1.15,"nuclei per well, duplicate mean":5832,"outcome":"inactive"}

Targets listed so far whose gene name begins with L or l:
{"target":"L3MBTL4 (L3MBTL histone methyl-lysine binding protein 4)","migration robust z-score":0.46,"nuclei per well, duplicate mean":6130,"outcome":"inactive"}
{"target":"LRRC31 (leucine rich repeat containing 31)","migration robust z-score":0.68,"nuclei per well, duplicate mean":5187,"outcome":"inactive"}
{"target":"LRIF1 (ligand dependent nuclear receptor interacting factor 1)","migration robust z-score":-0.08,"nuclei per well, duplicate mean":7401,"outcome":"inactive"}

Continued.
{"target":"RIPOR1 (RHO family interacting cell polarization regulator 1)","migration robust z-score":-1.09,"nuclei per well, duplicate mean":5181,"outcome":"inactive"}
{"target":"CDC42BPA (CDC42 binding protein kinase alpha)","migration robust z-score":-1.14,"nuclei per well, duplicate mean":3328,"outcome":"inactive"}
{"target":"CTDNEP1 (CTD nuclear envelope phosphatase 1)","migration robust z-score":-0.5,"nuclei per well, duplicate mean":5956,"outcome":"inactive"}
{"target":"NKG7 (natural killer cell granule protein 7)","migration robust z-score":0.22,"nuclei per well, duplicate mean":5449,"outcome":"inactive"}
{"target":"KLRF1 (killer cell lectin like receptor F1)","migration robust z-score":0.57,"nuclei per well, duplicate mean":5804,"outcome":"inactive"}
{"target":"BRS3 (bombesin receptor subtype 3)","migration robust z-score":-0.1,"nuclei per well, duplicate mean":5843,"outcome":"inactive"}
{"target":"PMS2P3","migration robust z-score":0.25,"nuclei per well, duplicate mean":6010,"outcome":"inactive"}
{"target":"CCAR2 (cell cycle and apoptosis regulator 2)","migration robust z-score":-0.19,"nuclei per well, duplicate mean":4804,"outcome":"inactive"}
{"target":"TRIM17 (tripartite motif containing 17)","migration robust z-score":-0.78,"nuclei per well, duplicate mean":4990,"outcome":"inactive"}
{"target":"CCL23 (C-C motif chemokine ligand 23)","migration robust z-score":-2.35,"nuclei per well, duplicate mean":5536,"outcome":"active"}
{"target":"RXFP2 (relaxin family peptide receptor 2)","migration robust z-score":-0.44,"nuclei per well, duplicate mean":4492,"outcome":"inactive"}
{"target":"ZNF236 (zinc finger protein 236)","migration robust z-score":0.37,"nuclei per well, duplicate mean":5781,"outcome":"inactive"}
{"target":"INF2 (inverted formin 2)","migration robust z-score":-3.07,"nuclei per well, duplicate mean":2913,"outcome":"inactive"}
{"target":"TXNDC12 (thioredoxin domain containing 12)","migration robust z-score":0.03,"nuclei per well, duplicate mean":6022,"outcome":"inactive"}
{"target":"TUFM (Tu translation elongation factor, mitochondrial)","migration robust z-score":0.26,"nuclei per well, duplicate mean":5047,"outcome":"inactive"}
{"target":"SOD2 (superoxide dismutase 2)","migration robust z-score":0.13,"nuclei per well, duplicate mean":5342,"outcome":"inactive"}
